PubChem BioAssay AID1671195 | Yale University, 2021
Shown is one part, drawn at random, of about 22,000 reagents tested. About 1,510 of all reagents (6.9%) were called active. 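Active includes knockdowns raising or lowering LDL uptake; positive z-scores mean more uptake, negative mean less.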 Unmarked entries are inactive.

Purpose: 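Knockdowns that increase or decrease uptake of fluorescent LDL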 (primary screen)
Cell system: human Huh7 hepatoma cells
Reagents: siRNA pool against human genes, 18 nM
Timing: about 2 to 2.5 days of knockdown, then 8 h LDL uptake
Conditions: DiI-labelled LDL at 30 µg/ml for 8 h, in lipoprotein-deficient serum medium
Measurement: 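Fluorescent LDL signal imaged in cells, scaled to the plate median, robust z-score for each replicate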
Scale: robust z-score: higher = more LDL uptake after knockdown
Hit rule: 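Active when two or more replicates show a robust z-score above 2 or below -2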

gene knocked down | robust z-score, replicate 1 | robust z-score, replicate 2 | robust z-score, replicate 3
PHOSPHO2 | -0.781 | -0.047 | -0.177
LRRC37A11P | 0.999 | 1.05 | 1.03
LOC391817 (retired record) | -1.84 | -2.01 | -1.75
IL23R | 0.262 | 0.247 | 0.54
LOC441375 (retired record) | -1.09 | -1.43 | -1.4
ARHGAP39 | -0.444 | 0.0439 | -0.213
MYO1E | -1.1 | -1.04 | -0.823
GGACT | 0.19 | 0.65 | 0.68
HAUS2 | -0.616 | 0.863 | -0.231
NIPSNAP1 | -0.162 | 0.0119 | 0.00216
SNX21 | -0.337 | -0.332 | -0.274
CATSPERQ | -0.99 | -0.251 | -0.819
DEDD | -0.144 | -0.00641 | -0.653
ARID3B | -0.184 | -0.951 | -0.541
RGP1 | 0.957 | 1.12 | -0.86
BAIAP2L1 | -0.685 | 0.462 | -1.17
PNPLA5 | -1.02 | -1.6 | -1.2
C8orf76 | -0.607 | -0.498 | -1.03
ZC3H15 | -0.398 | -0.328 | -0.409
ADD2 | -0.629 | -1.15 | -1.12
CNPY1 | -0.383 | 0.12 | -0.0368
LOC390427 (retired record) | -1.37 | -1.37 | -1.32
ACBD3 | -0.671 | -0.792 | -1.74
C8orf33 | 0.155 | 0.559 | 0.629
SGTA | 0.104 | 0.0066 | 0.0531
AZU1 | -1.63 | -0.803 | -0.914
RGPD5 | 0.508 | 0.0619 | -0.223
ORC5 | -0.583 | -0.649 | -0.24
ERC2 | 2.93 | 1.54 | 0.47
RBMX2P5 | -0.205 | -0.838 | -0.69
LOC442053 (retired record) | -0.0913 | 0.0377 | 0.0435
ITPKA | -0.425 | -0.676 | -0.473
ZNF157 | 2.27 (active) | 3.08 | 1.62
MS4A6E | 1.41 | 0.415 | 0.675
SORCS3 | -0.536 | -0.436 | -1.28
EMC10 | -0.361 | -0.639 | -0.501
SSR4 | 3.11 (active) | 3.48 | 4.75
ZNFX1 | 0.146 | 0.494 | -0.597
PATE1 | -1.01 | -0.619 | -0.947
EFHD2 | -0.461 | -0.777 | -1.07
LOC388923 (retired record) | 0.152 | 0.724 | 0.475
SUN2 | 0.435 | -0.0888 | -1.22
TVP23C | 2.77 (active) | 3.1 | 2.04
FBXL7 | -0.515 | 2.15 | -1.17
GCM1 | -0.0174 | -0.438 | -1.22
ZNF461 | -0.315 | -0.495 | -0.12

Records listed so far whose target name begins with L or l (6):
gene knocked down | robust z-score, replicate 1 | robust z-score, replicate 2 | robust z-score, replicate 3
LRRC37A11P | 0.999 | 1.05 | 1.03
LOC391817 (retired record) | -1.84 | -2.01 | -1.75
LOC441375 (retired record) | -1.09 | -1.43 | -1.4
LOC390427 (retired record) | -1.37 | -1.37 | -1.32
LOC442053 (retired record) | -0.0913 | 0.0377 | 0.0435
LOC388923 (retired record) | 0.152 | 0.724 | 0.475
